Test [1] deals with T19 cells. The test is described as follows: ODC (ornithine decarboxylase activity) assay of drug resistance, multidrug resistant T19 cells. Format: cell-based, Chinese hamster. Conditions: incubation time 18 hr; mean of two to four independent experiments. The protocol: (§1) The protein determinations were carried out according to the method of Bradford (Anal.Biochem. 72, 248-54, 1976), using lysozyme, triple crystallization and dialysis, as a standard.
Monolayers of parental AA8 and multidrug resistant T19 cells grown for 4 days at 37° C., were exposed to various concentrations of the antimitotic agent colchinine, for 6 hours, 18 hours and 48 hours and then the activity of ornithine decarboxylase was determined.
In the same manner, this assay was tested with various anticancer drugs of various structure and distinct mechanisms of action. The following cytotoxic agents were tested: vinca alkaloids, anthracyclines, epipodophyllotoxins, actinomycin D and antifolates.

The subject of test [2] is AA8 cells. Briefly: ODC (ornithine decarboxylase activity) assay of cellular drug sensitivity, wild type AA8 cells. Format: cell-based, Chinese hamster. As to the method:
as §1
Based on the above results discovered by the Inventors, further tests were done on the correlation between the ornithine decarboxylase activity and the resistance to cytotoxic agents or cellular sensitivity. Monolayers of parental AA8 and multidrug resistant T19 cells grown for 4 days at 37° C., were exposed to various concentrations of the antimitotic agent colchinine, for 6 hours, 18 hours and 48 hours and then the activity of ornithine decarboxylase was determined. […] This appears in a clear manner from the attached FIG. 3A. As can be noticed, even a short treatment of only 6 hours with colchinine, was sufficient to detect the sensitivity of AA8 cells and the high level of multi-drug resistance in T19 cells to colchinine.
In the same manner, this assay was tested with various anticancer drugs of various structure and distinct mechanisms of action. The following cytotoxic agents were tested: vinca alkaloids, anthracyclines, epipodophyllotoxins, actinomycin D and antifolates. Typical doseresponse curves of decreasing the ornithine decarboxylase activity versus increasing concentrations of some chemotherapeutic agents, are presented in FIG. 5A through FIG. 5I and in the following Table 1.

pIC50: −log10 of the molar value. Like-named read-outs stand apart in the source and are kept apart here.

`COc1cc2c(c(OC)c1OC)-c1ccc(OC)c(=O)cc1[C@@H](NC(C)=O)CC2` [Colchicine]: the pIC50 (commonly the negative decadic logarithm of the IC50, by convention in mol/L) in test [1] was 4.86; in test [2] (incubation time 18 hr, mean of two to four independent experiments, read-out: IC50 (ODC assay) AA8), 6.39; in test [2] (several independent experiments over 1 year, S.E., read-out: mean IC50 (reduction of 50% in the ornithine decarboxylase)) it was 6.39.

For the origin of these results see patent publication US5455161A, “Method for the monitoring of multiple anticancer drug resistance” (priority 1992, dated 1995).
